For assay [1], the target named is BRG1 (also known as SMARCA4) (mouse (endogenous in OT-I CD8+ T cells)) (UniProt Q3TKT4). Nature of the assay: affinity purification with mass spectrometry.
Assay [2] has the same target. Nature of the assay: affinity purification with mass spectrometry; immunoprecipitation with a BRG1-specific antibody from lysates of naive OT-I CD8+ T cells; gel bands analysed by MS.

Chains of the proteins cited; added tags and fusions are not shown.
UniProt Q3TKT4: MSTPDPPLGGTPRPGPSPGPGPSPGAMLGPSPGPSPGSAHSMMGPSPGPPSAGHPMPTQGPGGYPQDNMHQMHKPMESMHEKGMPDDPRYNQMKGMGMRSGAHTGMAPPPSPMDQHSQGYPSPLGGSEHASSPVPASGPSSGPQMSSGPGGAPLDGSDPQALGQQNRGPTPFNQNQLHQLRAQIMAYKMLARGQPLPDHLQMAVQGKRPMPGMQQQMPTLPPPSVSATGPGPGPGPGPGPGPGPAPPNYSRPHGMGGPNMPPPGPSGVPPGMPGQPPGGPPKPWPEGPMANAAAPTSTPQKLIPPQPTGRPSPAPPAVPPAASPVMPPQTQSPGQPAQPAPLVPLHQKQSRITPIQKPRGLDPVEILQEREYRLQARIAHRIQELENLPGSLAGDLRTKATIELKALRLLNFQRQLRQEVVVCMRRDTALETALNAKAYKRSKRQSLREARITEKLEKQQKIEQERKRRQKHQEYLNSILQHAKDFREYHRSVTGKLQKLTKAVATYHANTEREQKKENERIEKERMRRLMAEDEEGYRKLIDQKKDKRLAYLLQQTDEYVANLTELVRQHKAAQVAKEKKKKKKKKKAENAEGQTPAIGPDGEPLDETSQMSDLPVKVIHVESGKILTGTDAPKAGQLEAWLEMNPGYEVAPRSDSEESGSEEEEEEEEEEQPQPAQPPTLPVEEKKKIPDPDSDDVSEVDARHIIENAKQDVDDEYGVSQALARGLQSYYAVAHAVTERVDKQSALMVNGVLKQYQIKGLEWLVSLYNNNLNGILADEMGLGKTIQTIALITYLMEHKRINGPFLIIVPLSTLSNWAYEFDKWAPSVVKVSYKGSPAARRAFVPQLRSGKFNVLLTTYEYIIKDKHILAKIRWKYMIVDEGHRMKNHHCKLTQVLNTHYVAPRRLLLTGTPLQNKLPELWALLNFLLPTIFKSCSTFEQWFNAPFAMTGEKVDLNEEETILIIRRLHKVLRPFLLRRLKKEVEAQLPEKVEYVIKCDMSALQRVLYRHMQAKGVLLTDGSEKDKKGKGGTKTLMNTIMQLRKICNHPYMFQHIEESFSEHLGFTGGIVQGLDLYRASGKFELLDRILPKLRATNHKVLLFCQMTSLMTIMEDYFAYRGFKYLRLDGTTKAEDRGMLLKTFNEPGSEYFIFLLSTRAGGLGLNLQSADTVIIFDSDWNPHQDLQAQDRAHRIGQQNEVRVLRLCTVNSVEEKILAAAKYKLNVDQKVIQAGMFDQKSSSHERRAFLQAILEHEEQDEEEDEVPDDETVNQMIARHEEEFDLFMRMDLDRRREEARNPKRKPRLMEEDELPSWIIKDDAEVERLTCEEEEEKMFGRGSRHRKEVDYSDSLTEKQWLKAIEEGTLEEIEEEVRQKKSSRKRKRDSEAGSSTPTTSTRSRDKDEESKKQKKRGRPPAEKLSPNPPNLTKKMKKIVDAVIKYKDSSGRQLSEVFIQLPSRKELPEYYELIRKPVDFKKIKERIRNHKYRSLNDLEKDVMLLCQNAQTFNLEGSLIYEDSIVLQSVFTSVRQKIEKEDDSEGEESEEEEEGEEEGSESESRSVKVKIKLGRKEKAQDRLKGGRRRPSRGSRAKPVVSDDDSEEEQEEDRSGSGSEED

No constants are given. Whether binding was seen depends on the method and setting. In cells and extracts the contact can be indirect. These calls come from enrichment with a bait or labelling near it, and not all partners need be listed. For some assays here: No binding means not detected with the bait.

B1: PHF10 (protein, UniProt Q9D8M7 1-497)
chain: MTAAGPGAAPSPGRCDSDPASPGAQSPKDDNEDNSNDGTHPCKRRRMGSGDSSRSCETSSQDLSFSYYPAENLIEYKWPPDETGEYYMLQEQVSEYLGVTSFKRKYPDLERRDLSHKEKLYLRELNVITETQCTLGLTALRSDEVIDLMIKEYPAKHAEYSVILQEKERQRITDHYKEYSQMQQQSTQKVEASKVPEYIKKAAKKAAEFNSNLNRERMEERRAYFDLQTHVIQVPQGKYKVLPTDRTKVSSYPVALIPGQFQEYYKRYSPDELRYLPLNTALYEPPLDPELPALDSDGDSDDGEDGGGDEKRKNKGTSDSSSGNVSEGDSPPDSQEDTFHGRQKSKDKMATPRKDGSKRSVLSKSAPGYKPKVIPNALCGICLKGKESNKKGKAESLIHCSQCDNSGHPSCLDMTMELVSMIKTYPWQCMECKTCIICGQPHHEEEMMFCDVCDRGYHTFCVGLGAIPSGRWICDCCQRAPPTPRKVGRRGKNSKEG
Regarding B1, the figures for the binding result in assay [1] and in assay [2] were “binds” and “no binding (only in naive CD8+ T cells)”, respectively.

These data come from paper PMC11383612.
